From PubChem BioAssay (Tox21)
Several values for one entry are separate records, joined by “and”; a condition that tells them apart may be missing. Identical values can stand only once. Inconclusive means that the source gave no clear call. Such entries were picked first, then a sample of the others. Potencies of inconclusive entries are doubtful fits and often do not repeat. Some structures have more than one record in an assay (separate samples or runs), and their calls can disagree. Activity calls are given as the source filed them. Calls follow the shape of the dose curve; as a rule, active = well fitted inhibition curve with a large enough effect in the repeat runs; inconclusive = weak or mixed curves; inactive = no such curve, though single readings can be large or run the other way.

Chains of the proteins cited; added tags and fusions are not shown.
UniProt P11712, whole entry, looked up: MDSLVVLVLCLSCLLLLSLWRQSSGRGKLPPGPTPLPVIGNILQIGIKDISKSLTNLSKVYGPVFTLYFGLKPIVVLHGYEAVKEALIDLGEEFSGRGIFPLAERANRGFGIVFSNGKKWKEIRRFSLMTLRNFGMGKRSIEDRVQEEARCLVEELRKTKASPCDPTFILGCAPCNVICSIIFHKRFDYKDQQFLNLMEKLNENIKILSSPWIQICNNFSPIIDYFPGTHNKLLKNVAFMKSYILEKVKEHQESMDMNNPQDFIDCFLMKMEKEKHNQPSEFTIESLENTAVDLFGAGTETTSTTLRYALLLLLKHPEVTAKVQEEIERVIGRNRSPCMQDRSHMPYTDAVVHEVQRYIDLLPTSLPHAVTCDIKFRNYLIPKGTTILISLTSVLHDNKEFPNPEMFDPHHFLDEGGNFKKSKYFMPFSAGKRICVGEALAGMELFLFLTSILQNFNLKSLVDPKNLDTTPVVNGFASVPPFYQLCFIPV
UniProt P05177, whole entry, looked up: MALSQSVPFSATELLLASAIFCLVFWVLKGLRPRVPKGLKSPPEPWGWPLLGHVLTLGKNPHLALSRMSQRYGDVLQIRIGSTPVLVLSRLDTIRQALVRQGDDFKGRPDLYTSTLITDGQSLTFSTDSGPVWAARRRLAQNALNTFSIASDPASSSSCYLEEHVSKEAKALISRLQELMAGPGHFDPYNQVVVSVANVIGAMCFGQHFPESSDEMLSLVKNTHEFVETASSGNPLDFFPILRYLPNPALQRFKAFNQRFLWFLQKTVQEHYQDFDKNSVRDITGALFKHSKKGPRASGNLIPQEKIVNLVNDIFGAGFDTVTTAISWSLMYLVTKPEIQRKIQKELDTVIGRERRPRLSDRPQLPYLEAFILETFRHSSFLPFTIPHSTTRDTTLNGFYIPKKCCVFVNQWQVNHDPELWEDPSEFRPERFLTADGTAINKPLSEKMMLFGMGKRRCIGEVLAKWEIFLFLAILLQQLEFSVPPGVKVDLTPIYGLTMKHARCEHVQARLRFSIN

Tests used:
[1] = target: Cytochrome P450 2C9 (Homo sapiens) (UniProt P11712); assay: Cytochrome P450 Family 2 Subfamily C Member 9 (CYP2C9) small molecule antagonists: luciferase reporter qHTS assay (AID 1671198); settings: P450-Glo CYP2C9 enzyme assay, luciferin luminescence; series mostly up to 115 µM
How it was run: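 P450-Glo proluciferin substrate with CYP2C9 enzyme; 10 min RT preincubation, then NADPH regeneration 1 h at 37C; luciferin detection reagent 20 min RT, luminescence in relative luminescence units.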

[2] = target: Cytochrome P450 1A2 (Homo sapiens) (UniProt P05177); assay: Cytochrome P450 Family 1 Subfamily A Member 2 (CYP1A2) small molecule antagonists: luciferase reporter qHTS assay (AID 1671199); settings: P450-Glo CYP1A2 enzyme, luciferin luminescence, 1 h; series mostly up to 115 µM
How it was run: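 Human CYP1A2 activity measured with a P450-Glo proluciferin substrate; compounds in DMSO preincubated 10 min at room temperature with enzyme-substrate mix, then NADPH regeneration system added for 1 h. Luciferin detection reagent, 20 min, luminescence read.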
Also: nearly all actives have a fitted effect of over 50% in size.
Potency is read from the fitted curve at half-maximal effect.

| Compound | Potency [1] | Potency [2] |
| --- | --- | --- |
| CCOc1cc(OP(=S)(OC)OC)nc(CC)n1 | inconclusive: 71 µM [inhibitor, partial curve, poor fit] | inconclusive: 31.7 µM [inhibitor, partial curve] |
| CCCCOC(=O)CCC(=O)OCCCC | inconclusive: 39.9 µM [inhibitor, partial curve] |  |
| CCOC(=O)c1cncn1C(C)c1ccccc1 (stereo not drawn) | active: 12.3 µM |  |
| Oc1ccc(Cl)c(Cl)c1Cl | inconclusive: 82.6 µM [inhibitor] |  |
| BrCC(Br)c1ccccc1 (stereo not drawn) | inconclusive: 71 µM [inhibitor, partial curve] | inconclusive: 71 µM [inhibitor, partial curve] |
| Cc1cccc(N=Nc2ccc(N(C)C)cc2)c1 | inconclusive: 9.09 µM [inhibitor, full curve, poor fit] and inconclusive: 25.2 µM [inhibitor, full curve] |  |
| CC1Sc2c(C(=O)O)c(=O)c3cc(F)c(N4CCNCC4)cc3n21 (stereo not drawn) | inconclusive: 43.6 µM [inhibitor, partial curve, poor fit] |  |
| c1cc2c3c(cccc3c1)CC2 | inconclusive: 81.7 µM [inhibitor, partial curve, poor fit] | inconclusive: 32.5 µM [inhibitor, partial curve] and inconclusive: 28.3 µM [inhibitor, full curve] |
| Nc1ccc(-c2ccc(N)c(Cl)c2)cc1Cl | active: 10.1 µM and active: 11.8 µM and active: 12.6 µM |  |
| C1CN2CCN1CC2 | inconclusive: 92.8 µM [inhibitor, partial curve, poor fit] and inactive |  |
| CCCCN(CC)C(=O)SCCC | inactive |  |
| COP(N)(=O)SC (stereo not drawn) | inconclusive: 62.3 µM [inhibitor, partial curve] and inconclusive: 88.8 µM [inhibitor, partial curve, poor fit] |  |
| OC(c1ccc(F)cc1)(c1cncnc1)c1ccccc1Cl (stereo not drawn) | active: 20 µM | inconclusive: 35.6 µM [inhibitor, partial curve] |
| CCCCC(CC)COC(=O)c1ccc(C(=O)OCC(CC)CCCC)c(C(=O)OCC(CC)CCCC)c1 (stereo not drawn) | inconclusive: 35.6 µM [inhibitor, partial curve] | inconclusive: 63.3 µM [inhibitor, partial curve] |
| COc1nn(CSP(=S)(OC)OC)c(=O)s1 | active: 5.48 µM |  |
| c1ccc(CN2CCNCC2)cc1 | inactive |  |
| c1ccc(N=Nc2ccccc2)cc1 | inconclusive: 39.9 µM [inhibitor, partial curve, poor fit] |  |
| CC(=NC#N)N(C)Cc1ccc(Cl)nc1 | inconclusive: 35.6 µM [inhibitor, partial curve, poor fit] |  |
| O=C(O)c1cc(Cl)ccc1Cl | inconclusive: 39.7 µM [inhibitor, partial curve, poor fit] |  |
| CN(N=O)c1ccc([N+](=O)[O-])cc1 | inconclusive: 35.6 µM [inhibitor, partial curve] |  |
| O=C(O)C(Cl)(Cl)Cl | inconclusive: 61.7 µM [inhibitor, partial curve, poor fit] and inconclusive: 89.4 µM [inhibitor, partial curve, poor fit] | inconclusive: 39.9 µM [inhibitor, partial curve] |
| Nc1ccc(-c2ccc(N)cc2)cc1 | active: 35.2 µM and active: 11.2 µM and active: 25.2 µM |  |
| CN(C)C1CSSSC1 | active: 28.3 µM |  |
| Nc1cc(Cl)cc(C(=O)O)c1Cl | inconclusive: 55.9 µM [inhibitor, partial curve, poor fit] and inconclusive: 89.4 µM [inhibitor, partial curve, poor fit] | inconclusive: 70.4 µM [inhibitor] and inconclusive: 39.9 µM [inhibitor] |
| C=CC[C@]1(O)CC[C@H]2[C@@H]3CCC4=CC(=O)CCC4=C3C=C[C@@]21C | active: 11 µM |  |
| O=[N+]([O-])c1ccc(Cl)c(Cl)c1 | inconclusive: 79.8 µM [inhibitor] and inconclusive: 50.2 µM [inhibitor, partial curve, poor fit] |  |
